Results: patent US7005419
No constants are given. Whether binding was seen depends on the method and setting. Binding seen in cells or lysates may run through a third protein. Some binding calls cover weakened binding; strength is not graded here.

Amino acid sequences for entries named in this document (tags omitted). A change or cut given only in a name is not applied to a line headed by its entry.
UniProt P06493: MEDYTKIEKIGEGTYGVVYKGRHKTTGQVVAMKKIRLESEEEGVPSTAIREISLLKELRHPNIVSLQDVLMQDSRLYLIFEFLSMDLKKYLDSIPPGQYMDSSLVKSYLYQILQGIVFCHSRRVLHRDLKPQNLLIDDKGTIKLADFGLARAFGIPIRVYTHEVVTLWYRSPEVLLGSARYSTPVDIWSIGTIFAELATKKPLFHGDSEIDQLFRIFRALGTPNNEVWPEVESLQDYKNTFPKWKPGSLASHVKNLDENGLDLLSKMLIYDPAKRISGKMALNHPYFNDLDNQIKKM
UniProt P24522: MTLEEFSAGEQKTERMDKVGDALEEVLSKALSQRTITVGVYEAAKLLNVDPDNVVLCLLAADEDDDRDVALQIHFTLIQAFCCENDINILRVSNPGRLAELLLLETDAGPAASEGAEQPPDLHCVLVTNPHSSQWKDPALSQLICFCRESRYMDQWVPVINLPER

How the values were obtained:
Cdc2 (human) [1] = biological target: Cdc2 (human) (UniProt P06493); assay: co-immunoprecipitation from transfected cells, immunoblot
Cdc2 (human) [2] = biological target: Cdc2 (human) (UniProt P06493); assay: GST pull-down from RKO cell lysate, anti-Cdc2 immunoblot

In the case of “glutathione-S-transferase (GST)/GADD45 fusion protein (from UniProt P24522 2-165)”, the binding (Cdc2 (human) [1]) is reported as “binds” and the binding (Cdc2 (human) [2]) is reported as “binds”.
